# Reference: patent US20070254303A1, “Methods for assessing the efficacy of treatment with a glucocorticoid” (Praecis Pharmaceuticals Incorporated, priority 2006, published 2007)
# Protein sequences, listed by entry. Tags and fused reporters are not part of them. Lines headed by an entry give the natural chain unless they say otherwise; changes in a name come on top.
# UniProt P38062: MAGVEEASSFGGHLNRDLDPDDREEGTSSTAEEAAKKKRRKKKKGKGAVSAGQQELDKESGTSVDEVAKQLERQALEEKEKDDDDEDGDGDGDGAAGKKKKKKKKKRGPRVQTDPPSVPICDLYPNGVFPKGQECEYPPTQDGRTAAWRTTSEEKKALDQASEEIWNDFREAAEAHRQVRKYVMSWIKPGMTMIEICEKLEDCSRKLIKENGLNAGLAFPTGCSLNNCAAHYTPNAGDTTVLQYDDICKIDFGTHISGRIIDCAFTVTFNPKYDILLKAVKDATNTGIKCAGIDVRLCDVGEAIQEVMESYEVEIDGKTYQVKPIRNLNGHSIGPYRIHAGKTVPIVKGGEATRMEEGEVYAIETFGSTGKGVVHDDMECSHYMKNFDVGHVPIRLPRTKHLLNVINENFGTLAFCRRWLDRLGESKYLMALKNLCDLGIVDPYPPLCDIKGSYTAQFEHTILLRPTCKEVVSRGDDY
# At least one compound was matched to its structure with a doubt left.
# Molecular target: T1, MetAP-2 in white blood cells (Rattus norvegicus, UniProt P38062)
# T1 construct: white blood cells from animals of each study group were pooled and cell lysates were prepared; from tissue; host or cells: white blood cells of female Lewis rats (PG-PS arthritis model)
# Assay: MetAP-2 pharmacodynamic assay (ELISA of uninhibited MetAP-2 in white blood cell lysates of treated rats)
# Assay type: in vivo
# Conditions: naive animals treated for 12 days at 1 mg/kg, every other day, every 4 days or every 6 days
# Procedure: After completion of the study, wbc from rats of different groups that had been treated with vehicle (p.o., qod), dex (1 mg/kg, p.o., qod) or MetAP-2 inhibitor (1, 5, or 10 mg/kg, p.o., qod) were pooled, lysed, and the amount of MetAP-2 inhibited in wbc lysates was determined by the MetAP-2 pharmacodynamic assay. All values are expressed as percentage of the amount of MetAP-2 inhibited compared with vehicle-treated rats. The amount of uninhibited MetAP-2 (=100%) in vehicle-treated rats in this assay corresponded to 41 ng MetAP-2 per mg wbc protein. The detection limit was 0.47 ng MetAP-2 per mg wbc protein. Columns: 10 rats per group, except for naive rats treated with vehicle (n=4).
# Rat model of Peptidoglycan-Polysaccharide (PG-PS) induced arthritis. Female Lewis rats (109-130 g) were received from Charles River Laboratories. Food and water were available ad libitum. […] Paw swelling was monitored using a plethysmometer (Stoelting Co., Woodale, Ill.) according to instrument specifications. The volumes of the two hind paws were measured and averaged on day 1, 4, 6, 8, 10, 13, 15, 17, 20, 22, 23, 27, 29 and 31. […]
# MetAP-2 pharmacodynamic assay. […] After 1 hour, the plates were washed, and the immobilized biotinylated MetAP-2-inhibitor complex was then detected with an anti-MetAP-2 antibody, CM33 (0.5 μg/ml). […]
smiles,measurement,value
"C[C@@H]1C[C@H]2[C@@H]3CCC4=CC(=O)C=C[C@]4(C)[C@@]3(F)[C@@H](O)C[C@]2(C)[C@@]1(O)C(=O)CO [dexamethasone, reference compound]",MetAP-2 inhibition in naive animals,No MetAP-2 inhibition
